Paper PMC12215964
Substitutions are numbered along the chain they refer to. No constants are given. Whether binding was seen depends on the method and setting. In cells and extracts the contact can be indirect. Some entries that bind do so weakly or less than the wild type. Sequences can lack the tags named with a protein.

By UniProt entry, the sequences of proteins in these tests, tags left out.
UniProt P19785: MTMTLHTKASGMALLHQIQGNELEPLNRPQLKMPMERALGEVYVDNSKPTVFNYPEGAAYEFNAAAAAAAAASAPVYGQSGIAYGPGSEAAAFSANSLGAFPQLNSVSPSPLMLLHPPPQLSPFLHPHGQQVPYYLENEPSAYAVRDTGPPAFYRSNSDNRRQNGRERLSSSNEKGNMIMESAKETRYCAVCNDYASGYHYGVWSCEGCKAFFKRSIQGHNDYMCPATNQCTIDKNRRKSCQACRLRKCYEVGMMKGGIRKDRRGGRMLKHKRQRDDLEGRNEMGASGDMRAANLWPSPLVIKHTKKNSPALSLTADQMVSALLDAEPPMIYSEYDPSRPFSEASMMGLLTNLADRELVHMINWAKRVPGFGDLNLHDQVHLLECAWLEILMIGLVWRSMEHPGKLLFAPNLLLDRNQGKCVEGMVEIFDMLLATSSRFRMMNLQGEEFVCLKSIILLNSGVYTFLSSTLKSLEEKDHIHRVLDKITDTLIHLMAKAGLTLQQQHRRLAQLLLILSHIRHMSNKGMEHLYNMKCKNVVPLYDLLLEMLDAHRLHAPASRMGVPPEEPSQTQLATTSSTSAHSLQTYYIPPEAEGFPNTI

Tests used:
[1] = target: T1, GFP- and HA-tagged mouse terminal nucleotidyltransferase 5C (TENT5C) (mouse) (UniProt Q5SSF7); experiment: co-IP; HEK293T cells cotransfected; lysates in Pierce IP lysis buffer with protease inhibitors; GFP-tagged TENT5 proteins precipitated with GFP nanobody linked to Sepharose, 2 h at 4 °C; washed 5 times with HIP buffer (50 mM Tris-Cl, 150 mM NaCl, 1% Triton X-100); ERα in the precipitates detected by anti-ERα blot
T1 sequence: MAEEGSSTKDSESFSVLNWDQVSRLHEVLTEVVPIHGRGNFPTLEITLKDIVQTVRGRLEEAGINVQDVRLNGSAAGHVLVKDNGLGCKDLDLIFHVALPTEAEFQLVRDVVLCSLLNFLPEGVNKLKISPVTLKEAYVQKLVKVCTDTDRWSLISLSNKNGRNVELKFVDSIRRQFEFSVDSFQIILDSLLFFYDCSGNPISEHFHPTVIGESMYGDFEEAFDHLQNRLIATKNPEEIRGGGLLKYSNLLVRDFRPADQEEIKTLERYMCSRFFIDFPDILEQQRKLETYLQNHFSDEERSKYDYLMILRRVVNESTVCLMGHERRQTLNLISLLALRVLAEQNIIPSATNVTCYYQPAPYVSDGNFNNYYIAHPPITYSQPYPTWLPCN

[2] = target: T2, GFP- and HA-tagged mouse TENT5C LXXLL (3) motif mutant, LXXAA (TENT5C L3m) (mouse) (UniProt Q5SSF7); experiment: as above
T2 sequence: T1 sequence with L335A, L336A

“mouse estrogen receptor α (ERα) (from UniProt P19785 1-599)” was tested, and the binding [1] was “binds” and the binding [2] was “no binding”.
